The test concerns the target B. subtilis N-terminally hexahistidine-tagged BirA (Bacillus subtilis) (UniProt P0CI75). The experiment in a line: condition: only without biotin and ATP (BirA 30 µM); cross-linking; purified BirA 30 µM in 50 mM HEPES pH 7.5, 500 mM NaCl, 0.1 mM TCEP, 5% glycerol; without biotin and ATP, room temperature 30 min; EGS 0.125-0.5 mM, room temperature 30 min; SDS-PAGE on 4-20% gels; both purified.

Results are given in words; binding and its absence hold for the method and conditions named. Where a sequence is shown, tags or fusion partners need not be part of it.

B1: B. subtilis N-terminally hexahistidine-tagged BirA (enzyme, Bacillus subtilis, UniProt P0CI75 1-325, looked up)
chain: MRSTLRKDLIELFSQAGNEFISGQKISDALGCSRTAVWKHIEELRKEGYEVEAVRRKGYRLIKKPGKLSESEIRFGLKTEVMGQHLIYHDVLSSTQKTAHELANNNAPEGTLVVADKQTAGRGRMSRVWHSQEGNGVWMSLILRPDIPLQKTPQLTLLAAVAVVQGIEEAAGIQTDIKWPNDILINGKKTVGILTEMQAEEDRVRSVIIGIGINVNQQPNDFPDELKDIATSLSQAAGEKIDRAGVIQHILLCFEKRYRDYMTHGFTPIKLLWESYALGIGTNMRARTLNGTFYGKALGIDDEGVLLLETNEGIKKIYSADIELG
notes: 325 residues by the names of the constructs (64-325 etc.); no step that removes the tag is described; The vector is pET19b, whose own tag may be longer than six histidines and is followed by a linker (surmise); also called wild type BirA; B. subtilis BirA; source: E. coli BL21 (λ DE3) with pSKH001, purified (Ni NTA)
For the molecule B1, the binding result was “no binding”.

(Values after article PMC4016012, “Successful Conversion of the Bacillus subtilis BirA Group II Biotin Protein Ligase into a Group I Ligase” (PLoS ONE, 2014).)
